{"source": "PubChem BioAssay AID1259308 (NCATS, 2017)", "test": "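Knock-downs that increase output of a recombinant reporter protein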 (primary screen)", "cell system": "human HEK293 embryonic kidney cells stably expressing firefly luciferase (HEK-CMV-Luc2-Hygro)", "reagent": "single siRNA against human genes, 0.8 pmol siRNA per well", "duration": "72 h", "measurement": "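Reporter luminescence and viable-cell signal on separate replicate plates, given as percent of non-targeting control and median/MAD z-scores, plus per-cell luciferase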", "scale": "total luciferase, z-score and total luciferase, % of control: higher = more reporter protein produced", "active means": "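An siRNA counts as active if its total luciferase robust z-score exceeds 3; genes with two or more such siRNAs out of three were retested with fresh siRNAs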", "calls": "active = raised luciferase; inactive = no rise", "note": "Shown is an unselected part of about 59,000 deposited reagents. Over the whole deposit, about 1,510 (2.6%) are marked active. 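Calls use total luciferase alone and ignore viability, so some active siRNAs may act by altering cell number.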 A number with no mark means an inactive call. Reagents against one gene are numbered here. Not all columns of the deposit are shown. No sequences are given here."}
{"target":"SHANK1","reagent no.":1,"total luciferase, z-score":0.284,"total luciferase, % of control":87.5}
{"target":"SHANK1","reagent no.":2,"total luciferase, z-score":-0.39,"total luciferase, % of control":74.1}
{"target":"SHANK1","reagent no.":3,"total luciferase, z-score":-0.686,"total luciferase, % of control":68.2}
{"target":"TEX38","reagent no.":1,"total luciferase, z-score":-1.14,"total luciferase, % of control":59.2}
{"target":"TEX38","reagent no.":2,"total luciferase, z-score":-1.46,"total luciferase, % of control":52.8}
{"target":"TEX38","reagent no.":3,"total luciferase, z-score":"3.7 (active)","total luciferase, % of control":155}
{"target":"RPA2","reagent no.":1,"total luciferase, z-score":1.16,"total luciferase, % of control":105}
{"target":"RPA2","reagent no.":2,"total luciferase, z-score":-0.932,"total luciferase, % of control":63.3}
{"target":"RPA2","reagent no.":3,"total luciferase, z-score":-0.0781,"total luciferase, % of control":80.3}
{"target":"MIA2","reagent no.":1,"total luciferase, z-score":0.655,"total luciferase, % of control":94.9}
{"target":"MIA2","reagent no.":2,"total luciferase, z-score":-0.91,"total luciferase, % of control":63.8}
{"target":"MIA2","reagent no.":3,"total luciferase, z-score":-0.354,"total luciferase, % of control":74.8}
{"target":"MIA2","reagent no.":4,"total luciferase, z-score":0.135,"total luciferase, % of control":84.6}
{"target":"MIA2","reagent no.":5,"total luciferase, z-score":"3.71 (active)","total luciferase, % of control":156}
{"target":"MIA2","reagent no.":6,"total luciferase, z-score":-2.17,"total luciferase, % of control":38.8}

Records listed so far whose target name starts with S or s:
{"target":"SHANK1","reagent no.":1,"total luciferase, z-score":0.284,"total luciferase, % of control":87.5}
{"target":"SHANK1","reagent no.":2,"total luciferase, z-score":-0.39,"total luciferase, % of control":74.1}
{"target":"SHANK1","reagent no.":3,"total luciferase, z-score":-0.686,"total luciferase, % of control":68.2}
